Test results: the supplement of paper PMC6445147
This is a noisy data set.

B1: human tRNA-Pro; a variant is named by its letters at N, in order (parent)
chain: GGCTCGTTGGTCTAGNGGTATGATTCTCGCTTAGGGTGCGAGAGGTCCCGGGTTCNNATCCCGGACGAGCCC

Key:
[1] = variants of: B1; assay: tRNA Pol-III promoter activity, log2 (circRNA frequency / plasmid DNA frequency) (log2 ratio); higher = stronger promoter activity; details: HEK293T; construct: no Pol-II promoter ((-)CMV library)
[2] = variants of: B1; assay: tRNA 3' processing efficiency (processed reads / all reads, maximum-likelihood estimate) (fraction); higher = more efficient 3' processing; details: HEK293T; construct: no Pol-II promoter ((-)CMV library)
[3] = variants of: B1; assay: tRNA 5' processing efficiency (processed reads / all reads, maximum-likelihood estimate) (fraction); higher = more efficient 5' processing; details: HEK293T; construct: CMV Pol-II promoter ((+)CMV library, decapped)

| Variant | tRNA Pol-III promoter activity (log2) [1] | tRNA 3' processing efficiency [2] | tRNA 5' processing efficiency [3] |
| --- | --- | --- | --- |
| GAA A14T G15T T59G | 2.27 | 0.2 |  |
| GAA A14T A20T | 2.37 | 0.44 |  |
| GAA A14T A20G | -0.192 | 0.26 |  |
| TAA A14G G15A | 2.57 | 0.25 |  |
| GAA A14G G18A T59A | 3.52 | 0.43 |  |
| GAA A14G G18A T59G | 4.53 | 0.5 |  |
| GAA A14T G15C T19A | 3.93 | 0.5 |  |
| AAA A14T G17T | 6.02 | 0.95 |  |
| CAA A14G G15T G17T T59G | 8.2 | 0.19 |  |
| GAA A14T A58T T59C | 3.62 | 0.17 |  |
| GAA A14T A58T T59G | 6.02 | 0.5 |  |
| GAA A14G G17A | -0.32 | 0.33 |  |
| GAA A14G G17T | -0.248 | 0.5 |  |
| TAA A14T G15C T19G | 4.45 | 0.5 |  |
| GAA A14T G17A A20G | 2.36 | 0.25 |  |
| GAA A14T G18A A58T | 1.86 | 0.4 |  |
| GAA A14T G18A A58G | 1.62 | 0.25 |  |
| GAA A14T A58G T59C | 4.44 | 0.57 |  |
| GAA A14T A58G T59G | 4.32 | 0.35 |  |
| GAA A14T A58G T59A | 5.84 | 0.21 |  |
| GAA A14G T19A A20T | 3.36 | 0.4 |  |
| GAA A14G G18T | 0.379 | 0.5 |  |
| GAA A14G T53A A58C | 5.59 | 0.68 |  |

| Variant | tRNA Pol-III promoter activity (log2) [1] | tRNA 3' processing efficiency [2] | tRNA 5' processing efficiency [3] |
| --- | --- | --- | --- |
| AAA A14G T53C | 3.7 | 0.38 |  |
| AAA A14G T53A | 2.93 | 0.4 |  |
| GAA A14T A20T T53G | 2.43 | 0.5 |  |
| GAA A14T A20T T53A | 2.28 | 0.17 |  |
| GAA A14G G17T T59G | 3.44 | 0.4 |  |
| GAA A14G T19A T54A | 3.81 | 0.5 |  |
| TAA A14T | -2.2 | 0.5 |  |
| GAA A14G T19A | -1.21 | 0.25 | 0.33 |
| GAA A14G T19G | -0.529 | 0.32 |  |
| GAA A14G G18A A20T | 3.94 | 0.25 |  |
| GAA A14G G18A A20T A58G | 6.93 | 0.5 |  |
| GAA A14G G18A T19A | 3.13 | 0.25 |  |
| TAA A14T G15A T53G | 4.94 | 0.33 |  |
| GAA A14G G17A A58T | 1.98 | 0.14 |  |
| GAA A14G T59C | 2.34 | 0.34 | 0.33 |
| GAA A14G T59G | 1.02 | 0.28 |  |
| GAA A14G T59A | -0.0122 | 0.5 |  |
| GAA A14G G15A T59A | 2.77 | 0.4 |  |
| GAA A14G G15T T59A | 2.24 | 0.5 |  |
| AAA A14T A58G | 3.93 | 0.33 |  |
| GAA A14T A58G | 0.739 | 0.32 |  |
| GAA A14T A58T | 0.793 | 0.37 | 0.33 |
| GAA A14T A58C | -0.227 | 0.46 |  |

Random excerpt: 3 entries already listed

| Variant | tRNA Pol-III promoter activity (log2) [1] | tRNA 3' processing efficiency [2] | tRNA 5' processing efficiency [3] |
| --- | --- | --- | --- |
| GAA A14T A58G T59C | 4.44 | 0.57 |  |
| GAA A14G G18A A20T A58G | 6.93 | 0.5 |  |
| GAA A14T A58T T59C | 3.62 | 0.17 |  |

Further records

| Variant | tRNA Pol-III promoter activity (log2) [1] | tRNA 3' processing efficiency [2] | tRNA 5' processing efficiency [3] |
| --- | --- | --- | --- |
| CAA A14G C55T A58T | 5.03 | 0.25 |  |
| GAA A14G T53G | 0.701 | 0.36 |  |
| GAA A14G T53A | 0.265 | 0.22 | 0.33 |
| GAA A14G T53C | 0.876 | 0.38 | 0.25 |
| GAA A14G G18T T59C | 5.45 | 0.13 |  |
| CAA A14T C55T | 2.8 | 0.4 |  |
| TAA A14T A58T | 3.17 | 0.36 |  |
| CAA A14T G17A | 3.03 | 0.29 |  |
| AAA A14T A20T T59C | 6.25 | 0.2 |  |
| GAA A14T | -0.974 | 0.55 | 0.24 |
| GAA A14T A20T A58G | 2.71 | 0.25 |  |
| GAA A14T A20T A58T | 1.8 | 0.4 |  |
| GAA A14G G18A T53C | 5.74 | 0.57 | 0.25 |
| CAA A14G T53G | 5.25 | 0.2 |  |
| GAA A14T G17A A58G | 2.24 | 0.25 |  |
| GAA A14T G17A A58C | 3.34 | 0.17 |  |
| GAA A14G C55G | -0.478 | 0.2 | 0.4 |
| GAA A14T A20C A58G T59G | 7.26 | 0.3 |  |
| TAA A14T C55T A58C | 4.84 | 0.29 |  |
| GAA A14G G50T | 5.26 | 0.2 |  |
| TAA A14G T59C | 6.49 | 0.64 |  |
| GAA A14T A20T A58G T59C | 4.94 | 0.62 |  |
| GAA A14G T19C A58T | 3.94 | 0.5 |  |

| Variant | tRNA Pol-III promoter activity (log2) [1] | tRNA 3' processing efficiency [2] | tRNA 5' processing efficiency [3] |
| --- | --- | --- | --- |
| GAA A14G G18C T19C | 4.93 | 0.25 |  |
| GAA A14G G15A A58T | 1.94 | 0.25 |  |
| GAA A14G G18T C55T | 3.38 | 0.14 |  |
| GAA A14G G18T C55G | 2.8 | 0.2 |  |
| GAA A14T A58C T59A | 3.63 | 0.44 |  |
| GAA A14T A58C T59C | 5.51 | 0.33 |  |
| GAA A14T A58C T59G | 4.94 | 0.4 | 0.4 |
| GAA A14G G18T A20T T53A | 6.1 | 0.22 |  |
| GAA A14G T53A T59G | 3.19 | 0.4 |  |
| GAA A14G G17C G18A | 4.71 | 0.38 |  |
| GAA A14T G15T | -0.414 | 0.33 | 0.25 |
| GAA A14T G15A | -0.335 | 0.4 |  |
| GAA A14G C55T A58T | 1.44 | 0.26 |  |
| GAA A14G T19G T59C | 4.81 | 0.37 |  |
| GAA A14T C55T | -1.22 | 0.57 |  |
| GAA A14T C55G | -0.834 | 0.2 | 0.14 |
| GAA A14T C55A | -1.2 | 0.2 |  |
| GAA A14G T19G A58T | 2.77 | 0.4 |  |
| GAA A14G G15T A58C | 4.67 | 0.88 |  |
| GAA A14T A20T T59G | 3.81 | 0.17 |  |
| GAA A14T A20T T59C | 4.44 | 0.33 |  |
| AAA A14G C55T A58G | 4.94 | 0.33 |  |
| GAA A14T G18A A20T | 2.39 | 0.13 |  |

| Variant | tRNA Pol-III promoter activity (log2) [1] | tRNA 3' processing efficiency [2] | tRNA 5' processing efficiency [3] |
| --- | --- | --- | --- |
| CAA A14T A20T T59A | 5.53 | 0.17 |  |
| AAA A14T A20C A58G | 5.94 | 0.25 |  |
| GAA A14T G18A | -0.387 | 0.32 | 0.2 |
| GAA A14G G15T T54C C55T | 5.67 | 0.4 |  |
| GAA A14G T54C | -0.491 | 0.8 | 0.25 |
| GAA A14G T54A | 0.189 | 0.3 | 0.2 |
| GAA A14T G18C T54A A58T | 5.94 | 0.25 |  |
| GAA A14T G18A T59C | 3.34 | 0.7 |  |
| GAA A14T G18A T19A T59G | 6.62 | 0.5 |  |
| CAA A14T A58T | 4.03 | 0.4 |  |
| CAA A14T A58G | 3.94 | 0.29 |  |
| GAA A14G T19A A58T T59A | 5.94 | 0.25 |  |
| GAA A14G G17A T19A C55T | 4.93 | 0.33 |  |
| GAA A14G G18C A58C | 4.16 | 0.43 |  |
| GAA A14G G17T A58G | 5.41 | 0.62 |  |
| GAA A14G G17T A58T | 2.36 | 0.4 |  |
| GAA A14T A20T T54A | 2.68 | 0.4 |  |
| GAA A14T A20G A58C | 3.17 | 0.56 |  |
| TAA A14G T54A | 2.93 | 0.17 |  |
| GAA A14T G17T T59C | 4.44 | 0.3 |  |
